Results are given in words; binding and its absence hold for the method and conditions named. A result given as binding can be weak or reduced; the word gives no strength.
Legend:
Settings in all cases: remark: other sources report otherwise
[1] = molecular target: b1b2 domains (275-595) of neuropilin-2, O60462; assay: ELISA, plate-bound b1b2 domain
[2] = molecular target: b1b2 domains (273-586) of neuropilin-1, O14786; assay: ELISA, plate-bound b1b2 domain
[3] = molecular target: b1b2 domains (275-595) of neuropilin-2, O60462; assay: ELISA: target coated on the plate, biotinylated peptide at 100 nM and 1 uM, anti-biotin-AP and pNPP, absorbance at 405 nm [A]
[4] = molecular target: b1b2 domains (273-586) of neuropilin-1, O14786; assay: as above

Measured: binding

HTPGNSNKWKHLQENKKGRPRR (here or on the partner: biotin (position not given)) [A22p peptide]
binds: all assays above

— patent publication US20160130315A1
